This passage reports protein melting temperature results from the supplement of paper PMC7806825.

The subject of this data set is McpC ligand-binding domain (Salmonella Typhimurium SL1344). As to the kind of experiment: protein melting temperature (Tm) in presence of compound (degrees C); higher = more thermal stabilisation (possible ligand binding). The conditions noted are these: Biolog plate: PM05; compound stock concentration: 10-20 mM, 2 uL in 10 uL reaction.

Regarding `O=C(O)C1=C[C@@H](O)[C@@H](O)[C@H](O)C1` [(-)Shikimic acid], the protein melting temperature stood at 44.6.

As for `C=C(O[C@@H]1C=C(C(=O)O)C=C[C@H]1O)C(=O)O` [Chorismic acid], the protein melting temperature worked out at 44.5.
